In patent US20200332281:

Test system: thrombin
Assay: SPR
Settings: purified native protein, protein details: immobilized by amine coupling on CM5 sensor chip
[1] = Kd not calculable, dissociation curve reaches a stable bound level, single-stranded …
[2] = HBS-EP, 150 mM NaCl, pH 7.0, single-stranded DNA
[3] = no specific response, single-stranded DNA

“AGCAGCACAGAGGTCAGATGAAGAGGGTGGAGTGGTTGGCTTCACAATGGCCTATGCGTGCTACCGTGAA [T_beads_re_apt.1]”: binds [1].

“AGCAGCACAGAGGTCAGATGAAGGGGGTGGGGGTCGGGTGGCCTCACGATCCTATGCGTGCTACCGTGAA [T_beads_re_apt.4]” gave a Kd [2] of 645 nM.

With “AGCAGCACAGAGGTCAGATGACGGGGATGGGGGGGTGGAGGAGGCCTGTCCTATGCGTGCTACCGTGAA [T_beads_re_apt.10]” the Kd (single kinetic analysis, very slow dissociation, not regenerated by 1 M NaCl, HBS-EP pH 7.0, single-stranded DNA) was 101 nM.

Sequence “AGCAGCACAGAGGTCAGATGATAGGATGGGTGGGTGGGTTCGTCAGTTACCTATGCGTGCTACCGTGAA [T_beads_apt.8]” has a Kd [2] of 43 nM.

Work on “AGCAGCACAGAGGTCAGATGGATGGTGTAGGTTGGGAGAGGCTCAGTGCCCTATGCGTGCTACCGTGAA [T_beads_apt.3]” yielded a Kd [2] of 165 nM.

“AGCAGCACAGAGGTCAGATGGGATGGATTGGTTGGCGTCTGATAATGGTGCCTATGCGTGCTACCGTGAA [T_beads_re_apt.5]”: binds [1].

“AGCAGCACAGAGGTCAGATGGGGGTGGATGTGGTATTTTAGTGGCGATCTCCTATGCGTGCTACCGTGAA [T_beads_re_apt.3]” was tested, and the Kd [2] was 947 nM.

“AGCAGCACAGAGGTCAGATGGGGTGGGGTGGATTGGTTGGCGTTCCTGGACCTATGCGTGCTACCGTGAA [T_beads_apt.10]”: no binding [3].

“AGCAGCACAGAGGTCAGATGGGTTGGGTGGTGTGGGTAGTGATCCCTGTGCCTATGCGTGCTACCGTGAA [T_apt.8]”: no binding [3].

“AGCAGCACAGAGGTCAGATGGTGTACTATTATGGTGTGGTTGGTATGGTTCCTATGCGTGCTACCGTGAA [T_apt.7]”: no binding [3].

In the case of “AGCAGCACAGAGGTCAGATGGTTGGTTATGGTGGTTTTAGTGGGACTCGACCTATGCGTGCTACCGTGAA [T_beads_apt.7 (= T_beads_re_apt.2)]”, the Kd [2] is reported as 329 nM.

“AGCAGCACAGAGGTCAGATGGTTTGGGTGGTTAGGTGTTGACCTGGGATGCCTATGCGTGCTACCGTGAA [T_apt.1 (= T_beads_apt.2, T_beads_re_apt.6)]”: binds more weakly (single-stranded DNA).

“AGCAGCACAGAGGTCAGATGTCGGGTTGGATTGGTTGGCTTAAACTATGTCCTATGCGTGCTACCGTGAA [T_apt.10]”: binds more weakly (single-stranded DNA).

Sequence “AGCAGCACAGAGGTCAGATGTCTGGTTGGTGTGGTTGGGAGTTTTTTGATCCCTATGCGTGCTACCGTGAA [TBA_like_apt.1]” has a Kd (control containing the TBA 15 sequence, HBS-EP pH 7.0, single-stranded DNA) of 217 nM.

“AGCAGCACAGAGGTCAGATGTGGATTGGTTGGATTGGGGGTGTGACTGTGCCTATGCGTGCTACCGTGAA [T_apt.9]”: no binding [3].

“AGCAGCACAGAGGTCAGATGTGGGTCCGGGGTTGGGGGGGTGGCCGGGTCCCTATGCGTGCTACCGTGAA [T_beads_apt.9]”: no binding [3].

“AGCAGCACAGAGGTCAGATGTTAGGGTTGGGAGGGTGGCTGACTAATGTACCTATGCGTGCTACCGTGAA [T_beads_apt.4]”: no binding [3].

A weaker result is weaker than the reference pair of the same experiment. The exact form of at least one protein or probe is not confirmed. A negative result means that nothing was seen under these conditions.
